# Where “and” joins values, the source holds several entries; their conditions need not be identical. Equal values may be shown once. Where a name gives a salt, the structure may show the parent alone. ± gives the standard deviation of the averaged measurements. The list shows a part of the results. Baselines shift from plate to plate; read single values as rough.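 Culture-activated primary human stellate myofibroblasts, where regained lipid droplets signal inactivation. Value: share of Hoechst-counted cells above a per-plate Bodipy cutoff, in duplicate wells, with DMSO negative and nortriptyline positive controls on each plate. Hits: a control-normalized score above the plate's top-tenth-percentile nortriptyline wells, or one of a plate's three best wells. Final well concentrations are not given.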
# System: primary human hepatic stellate cells (donor 1)
# Test: percent Bodipy-positive cells; higher = more lipid droplet accumulation
# Conditions: 48 h
# [1] = library stock concentration: 10 mM
# [2] = library stock concentration: 3.33 mM
# [3] = library stock concentration: 5.8 mM
# [4] = library stock concentration: 1 mM
# [5] = library stock concentration: 80 uM
# [6] = library stock concentration: 400 uM
# [7] = library stock concentration: 2 mM
compound,measurement,setting,value
COc1cccc2c1[C@@H]1CN(CCCCn3c(=O)[nH]c4c(sc5ncc(-c6ccccc6)nc54)c3=O)C[C@@H]1CO2.Cl [Fiduxosin hydrochloride],percent Bodipy-positive cells,[1],90.3 ± 4.4%
CC(CNC1CCCCC1)OC(=O)c1ccccc1 (stereo not given) [Hexylcaine hydrochloride],percent Bodipy-positive cells,,11.1 ± 3.7%
O=C(O)c1cccc(-c2noc(-c3ccccc3F)n2)c1 [Ataluren (PTC124)],percent Bodipy-positive cells,[2],8.01 ± 1.9%
same,percent Bodipy-positive cells,[1],10.5 ± 1.9%
Nc1ccc(S(=O)(=O)Nc2nccs2)cc1 [Sulfathiazole],percent Bodipy-positive cells,,21.5 ± 8.8%
same,percent Bodipy-positive cells,[2],18.3 ± 5.9%
same,percent Bodipy-positive cells,library stock concentration: 7.8 mM,12.6 ± 4.9%
same,percent Bodipy-positive cells,[1],22.9% and 16.7%
CN[C@H]1CC[C@@H](c2ccc(Cl)c(Cl)c2)c2ccccc21 [Sertraline],percent Bodipy-positive cells,[1],79.1% and 99.2%
CN[C@H]1CC[C@@H](c2ccc(Cl)c(Cl)c2)c2ccccc21 [Sertraline hydrochloride],percent Bodipy-positive cells,[3],85.5 ± 1.8%
CN[C@H]1CC[C@@H](c2ccc(Cl)c(Cl)c2)c2ccccc21 [Sertraline HCl],percent Bodipy-positive cells,[2],52.8 ± 17%
same,percent Bodipy-positive cells,[1],99.1 ± 1.3%
CCOC(=O)C(Cc1ccc(O)cc1)NC(C)=O (stereo not given) [Acetyl tyrosine ethyl ester],percent Bodipy-positive cells,[1],32.1 ± 2.1%
COCCNC(=O)COc1ccc(OCCNC[C@H](O)COc2ccccc2)cc1 [ZD 7114 hydrochloride],percent Bodipy-positive cells,[1],19.3 ± 3.8%
CCN(CC)CCCCNc1ncc2cc(-c3cc(OC)cc(OC)c3)c(NC(=O)NC(C)(C)C)nc2n1,percent Bodipy-positive cells,[2],98.3 ± 1.7%
same,percent Bodipy-positive cells,[1],98.9 ± 1.5%
CCOC(=O)C1=C(C)NC(=S)NC1c1cccc(O)c1 (stereo not given) [Monastrol],percent Bodipy-positive cells,[1],7.21 ± 1.9%
same,percent Bodipy-positive cells,library stock concentration: 17.1 mM,24.23 ± 0.1%
CCn1c(N)c(C(=O)NC)c(=O)c2ccc(C#CC(C)(O)COC)nc21 (stereo not given),percent Bodipy-positive cells,[2],5.29 ± 0.95%
same,percent Bodipy-positive cells,[1],8.97 ± 1.6%
CC[C@H]1OC(=O)[C@H](C)[C@@H](O[C@H]2C[C@@](C)(OC)[C@@H](O)[C@H](C)O2)[C@H](C)[C@@H](O[C@@H]2O[C@H](C)C[C@H](N(C)C)[C@H]2O)[C@](C)(O)C[C@@H](C)CN(C)[C@H](C)[C@@H](O)[C@]1(C)O [Azithromycin dihydrate],percent Bodipy-positive cells,[1],94 ± 3.7%
CC[C@H]1OC(=O)[C@H](C)[C@@H](O[C@H]2C[C@@](C)(OC)[C@@H](O)[C@H](C)O2)[C@H](C)[C@@H](O[C@@H]2O[C@H](C)C[C@H](N(C)C)[C@H]2O)[C@](C)(O)C[C@@H](C)CN(C)[C@H](C)[C@@H](O)[C@]1(C)O [Azithromycin],percent Bodipy-positive cells,[2],41.9 ± 7.4%
same,percent Bodipy-positive cells,[1],68.5% and 70.1% and 90.6%
C[C@@H]1CCC[C@H](C)N1NC(=O)c1ccc(Cl)c(S(N)(=O)=O)c1 [Clopamide],percent Bodipy-positive cells,,23.3 ± 1.7%
same,percent Bodipy-positive cells,[3],8.88% and 10.4%
CN(C)C(=O)CCSC(SCCC(=O)O)c1cccc(/C=C/c2ccc3ccc(Cl)cc3n2)c1 (stereo not given) [MK 571 (sodium salt)],percent Bodipy-positive cells,[4],15.3 ± 7.8%
CN1CCc2nc(C(=O)N[C@@H]3C[C@@H](C(=O)N(C)C)CC[C@@H]3NC(=O)C(=O)Nc3ccc(Cl)cn3)sc2C1 [Edoxaban],percent Bodipy-positive cells,[2],27 ± 4.3%
same,percent Bodipy-positive cells,[1],32.8 ± 1.3%
OCCn1cc(-c2ccc3c(c2)CC/C3=N\O)c(-c2ccncc2)n1,percent Bodipy-positive cells,[5],23.4 ± 9.4%
same,percent Bodipy-positive cells,[6],24.7 ± 3.7%
same,percent Bodipy-positive cells,[7],25.6 ± 16%
same,percent Bodipy-positive cells,[2],5.97 ± 1.2%
same,percent Bodipy-positive cells,[1],12.8% and 12.4%
CCC(C)(C)N=C(NC#N)Nc1cccnc1,percent Bodipy-positive cells,library stock concentration: 9.9 mM,6.23 ± 0.32%
C1CCC(N=C(NC23CC4CC(CC(C4)C2)C3)N2CCOCC2)CC1,percent Bodipy-positive cells,[1],27.5 ± 7.7%
NC1CCN(O)C1=O (stereo not given),percent Bodipy-positive cells,[1],43.2 ± 6.8%
CCS(=O)(=O)c1cccc(-c2cc(C(=O)NC3CCN(C)CC3)c(C)c3[nH]c4ncc(C)cc4c23)c1,percent Bodipy-positive cells,[2],75 ± 0.81%
same,percent Bodipy-positive cells,[1],87.49 ± 0.55%
COC(=O)[C@H](Cc1ccccc1)NC(=O)[C@@H](N)CC(=O)O [Aspartame],percent Bodipy-positive cells,[2],8.74 ± 7%
same,percent Bodipy-positive cells,library stock concentration: 6.8 mM,12.3 ± 4.1%
same,percent Bodipy-positive cells,[1],7.85% and 31.9%
C=C1O[C@@](CO)(n2cnc3c(N)ncnc32)[C@H](O)[C@@H]1O [Decoyinine],percent Bodipy-positive cells,library stock concentration: 17.9 mM,18.9 ± 5.8%
O=C(/C=C/c1ccc(O)c(O)c1)O[C@H](Cc1ccc(O)c(O)c1)C(=O)O [Rosmarinic Acid],percent Bodipy-positive cells,[4],11.1 ± 2.3%
O=C(/C=C/c1ccc(O)c(O)c1)O[C@H](Cc1ccc(O)c(O)c1)C(=O)O [Rosmarinic acid],percent Bodipy-positive cells,[1],30.3% and 5.35%
NC(=O)C1CCCc2c1[nH]c1ccc(Cl)cc21 (stereo not given) [EX 527 (Selisistat)],percent Bodipy-positive cells,[2],5.96 ± 1.3%
same,percent Bodipy-positive cells,[1],6.1 ± 0.092%
NC(=O)C1CCCc2c1[nH]c1ccc(Cl)cc21 (stereo not given),percent Bodipy-positive cells,[5],31.3 ± 8.4%
same,percent Bodipy-positive cells,[6],34.7 ± 3.6%
same,percent Bodipy-positive cells,[7],47.5 ± 7.2%
same,percent Bodipy-positive cells,[1],41.3 ± 4.2%
CCCCc1oc2ccccc2c1C(=O)c1cc(I)c(OCCN(CC)CC)c(I)c1.Cl [Amiodarone hydrochloride],percent Bodipy-positive cells,[1],97 ± 1.7%
CO/N=C(\C(=O)N[C@@H]1C(=O)N2C(C(=O)O)=C(COC(C)=O)CS[C@H]12)c1csc(N)n1 [Cefotaxime sodium],percent Bodipy-positive cells,[1],11.9% and 30.3%
CO/N=C(\C(=O)N[C@@H]1C(=O)N2C(C(=O)O)=C(COC(C)=O)CS[C@H]12)c1csc(N)n1,percent Bodipy-positive cells,[1],43.5 ± 19%
CO/N=C(\C(=O)N[C@@H]1C(=O)N2C(C(=O)O)=C(COC(C)=O)CS[C@H]12)c1csc(N)n1 [Cefotaxime sodium salt],percent Bodipy-positive cells,,27.2 ± 7%
CO/N=C(\C(=O)N[C@@H]1C(=O)N2C(C(=O)O)=C(COC(C)=O)CS[C@H]12)c1csc(N)n1 [Cefotaxime acid],percent Bodipy-positive cells,library stock concentration: 4.4 mM,7.51 ± 3.7%

# 10 entries from above, with bars between the fields.
compound | measurement | setting | value
CN[C@H]1CC[C@@H](c2ccc(Cl)c(Cl)c2)c2ccccc21 [Sertraline hydrochloride] | percent Bodipy-positive cells | [3] | 85.5 ± 1.8%
CN[C@H]1CC[C@@H](c2ccc(Cl)c(Cl)c2)c2ccccc21 [Sertraline HCl] | percent Bodipy-positive cells | [2] | 52.8 ± 17%
same | percent Bodipy-positive cells | [1] | 99.1 ± 1.3%
CCOC(=O)C(Cc1ccc(O)cc1)NC(C)=O (stereo not given) [Acetyl tyrosine ethyl ester] | percent Bodipy-positive cells | [1] | 32.1 ± 2.1%
COCCNC(=O)COc1ccc(OCCNC[C@H](O)COc2ccccc2)cc1 [ZD 7114 hydrochloride] | percent Bodipy-positive cells | [1] | 19.3 ± 3.8%
CCN(CC)CCCCNc1ncc2cc(-c3cc(OC)cc(OC)c3)c(NC(=O)NC(C)(C)C)nc2n1 | percent Bodipy-positive cells | [2] | 98.3 ± 1.7%
same | percent Bodipy-positive cells | [1] | 98.9 ± 1.5%
CCOC(=O)C1=C(C)NC(=S)NC1c1cccc(O)c1 (stereo not given) [Monastrol] | percent Bodipy-positive cells | [1] | 7.21 ± 1.9%
same | percent Bodipy-positive cells | library stock concentration: 17.1 mM | 24.23 ± 0.1%
CCn1c(N)c(C(=O)NC)c(=O)c2ccc(C#CC(C)(O)COC)nc21 (stereo not given) | percent Bodipy-positive cells | [2] | 5.29 ± 0.95%

# Reference: the supplement of paper PMC9135407
